US20260008852A1
Numbering of substitutions follows the chain as printed. Results are given in words; binding and its absence hold for the method and conditions named. A result given as binding can be weak or reduced; the word gives no strength.

Target: His-tagged cynomolgus monkey B7-H3 (cynomolgus monkey)
Experiment: ELISA, coated His-tagged antigen

B1: 40633p1.1.F2 (scFv, V domains shown)
VH: EVQLLESGGGLVQPGGSLRLSCVASGLTFNGFAMTWVRQAPGKGLEWVSGISWNSGSIYYADSVKGRFTISRDNSKNTVYLQMSSLRAEDTAIYYCAKNWNDYYNSMDVWGQGTTVTVSS
VL: QSVLTQPPSASGTPGQRVTISCSGSRSNIGTKYVYWYQQFPGTAPKLLIYTTDRRPSGVPDRFSGSKSGTSASLAISGLQSEDEADYYCSAWDDRLNAWVFGGGTKLTVL
With B1 the binding was “binds”.

B2: 40633p1.1.G10 (scFv, V domains shown)
VH: EVQLLESGGGLVEPGGSLRLSCAASGFSFSSYGMHWVRQAPGKGLDWVAVINGEGSGTYYADSVKGRFTISRDNSKSTLYLQMNSLRAEDTAVYYCTKYYYNYAMDVWGQGTTVTVSS
VL: QSVLTQPPSASGTPGQRVTISCSGSRTDIGTTSVNWYQQLPGTAPKLLIYQSHQRPSGVPDRFSGSKSGTSASLAISGLQSEDEADYYCASWDASQNTWVFGGGTKLTVL
For B2, the binding was “binds”.

B3: 40633p1.1.G11 (scFv, V domains shown)
VH: EVQLLESGGGLVQPGGSLRLSCAASGFTVSYYGMSWVRQAPGKGLEWVSVIKQDGSEEYYADSVKGRFTISRDNSKNTLYLQMNSPRAEDTAVYYCARHWNDYSNGMNVWGQGTTVTVSS
VL: QSVLTQPPSASGTPGQRVTISCSGSTSNVGDRYVYWYQQLPGTAPKLLIYLDDQRPSGVPDRFSGSKSGTSASLAISGLQSEDEADYYCASWDASLNGWVFGGGTKLTVL
With B3 the binding was “binds”.

B4: 40633p1.1.G5 (scFv, V domains shown)
VH: B3 VH with T28I, S30N, A40P, V50A, E58K, N77T, P86L
VL: QSVLTQPPSASGTPGQRVTISCSGSWSNIGSYNSHWYQKLPGTAPKLLIYTTDRRPSGVPDRFSGSKSGTSASLAISGLQSEDEADYYCGTWDDSLNVWVFGGGTKLTVL
For B4, the binding was “binds”.

B5: 40633p1.1.G7 (scFv, V domains shown)
VH: EVQLLESGGGLVQPGGSLRLSCAASGFTFSGSAMNWVRQAPGKGLEWVSAINSGGTTIYYADSVKGRFTVSRDNSKNTLYLQMNSLRAEDTAVYYCVKLDFYYGMDVWGEGTTVTVSS
VL: QSVVTQPPSASGTPGQRVTVSCSGSSSNVGSKYVQWYQQLPGTAPKLLIYATDRRPSGVPDRFSGSKSGTSASLAISGLQSEDEADYYCASWDDSLNAWVFGGGTKLTVL
For B5, the binding was “binds”.

B6: 40633p1.1.H11 (scFv, V domains shown)
VH: EVQLLESGGGLVQPGGSLRLSCAASGFTFSSYPMTWVRQAPGKGLEWVADINSGGGTTLYADAVKGRFTISRDNSKNIVYLQMNSLRGEDTAVYYCAKHLDYYSYGMDVWGQGTTVTVSS
VL: QSVLTQPPSASGTPGQRVTISCSGVTSKIGSKYVHWYQQLPGTAPKLLIYRNFERPSGVPDRFSGSTSGTSASLAISGLQSEDEADYYCATWEGALNGWVFGGGTKLTVL
For B6, the binding was “binds”.

B7: 40633p1.2.A10 (scFv, V domains shown)
VH: B3 VH with P86L
VL: B3 VL
For B7, the binding was “binds”.

B8: 40633p1.2.A8 (scFv, V domains shown)
VH: B2 VH with V12L, E13Q, D46E, V50A, G53S, E54D, G57R, T58I, S77N, N102H
VL: B2 VL with T27S, T31A, S33T, Q54L, Q96L
For B8, the binding was “binds”.

B9: 40633p1.2.C3 (scFv, V domains shown)
VH: B3 VH with V50A, E58K, P86L, G106A, G111E
VL: B3 VL with T26N, D31G, R32N, Y35S, L51R, D52N, D53S, D86V
With B9 the binding was “binds”.

B10: 40633p1.2.D1 (scFv, V domains shown)
VH: EVQLLESGGGLVQPGGSLRLSCAASGFTFDVYGMSWVRQAPGKGLEWVSAINWNGGSTYYADSVKGRFTISRDNSENTLYLQMNSLRAEDTAVYYCAKEKWKHFIYYGMDVWGQGTTVTVSS
VL: QSVLTQPASASGTPGQTVSISCSGSSSNIDSNTANWYQQLPGTAPKLLIYSNNQRPSGVPDRFSGSKSDTSASLAISGLQSEDEGDYYCSAWDDNLNGWLFGGGTKLTVL
B10 was tested, and the binding was “binds”.

B11: 40633p1.2.D11 (scFv, V domains shown)
VH: EVQLESGGGLVQPGGSLRLSCAASGFTVSYYGMSWVRQAPGKGLEWVSAIKQDGSEKYYADSVKGRFTISRDNSKNTLYLQMNSLRAEDTAVYYCARHWNDYSNAMNVWGQGTTVTVSS
VL: B3 VL with V29I, G30A, D31I, R32D, Y33F, Y35N, L51T, D52I, D86V, G103R
With B11 the binding was “binds”.

B12: 40633p1.2.E1 (scFv, V domains shown)
VH: B3 VH with G9R, P86L
VL: B3 VL
With B12 the binding was “binds”.

B13: 40633p1.2.E11 (scFv, V domains shown)
VH: EVQLLESGGGLVQPGGSLRLSCAASGFSFSNYDMSWVRQAPGKGLEWVAGIRSGSRTYYADSVKGRFTISRDNSKNTLYLQMNSLRAEDTATYYCGRYFNMDVWGQGTTVTVSS
VL: QSVLTQPPSASGTPGQRVTISCSGSTFNIGTNLVHWYQQLPGTAPKLLIYLTDRRPPGVPDRFSGSKSGTSASLAISGLQSEDEANYYCATWDDSLNSFLFGGGTKLTVL
For B13, the binding was “binds”.

B14: 40633p1.2.G9 (scFv, V domains shown)
VH: EVQLLESGGGLLQPGGSLRLSCAASGFSFSSYGMHWVRQAPGKGLEWVAAINSDGSRIYYADSVEGRFTISRDNSKNTLYLQMNSLRAEDTAVYYCTKYYYHYAMDVWGQGTTVTVSS
VL: B2 VL with T27S, T31A, S33T, Q54L, Q96L
With B14 the binding was “binds”.

B15: 40633p1.2.C11 (scFv, V domains shown)
VH: EVQLLESGGGLVQPGGSLRLSCAASGFTFSSYWMSWVRQAPGKGLEWVAGINRNGGSTYYADSVKGRFTISRDNSENTLYLQVNSLRAEDTAVYYCARWNDYDIMDVWGQGTTVTVSS
VL: QSVLTQPSSASGTPGQRVTISCSGSSSNVGRRAVNWYQQLPGTAPKLLISNSQRPSGVPDRFSGSKSGTSASLAISGLQSEDEADYYCATWDASLNSWVFGGGTKLTVL
In the case of B15, the binding is reported as “no binding (tested: 1 ug/ml)”.
